We go through one molecule from PMC11130212.

Amino acid sequences for entries named in this document (tags omitted).
UniProt P68871: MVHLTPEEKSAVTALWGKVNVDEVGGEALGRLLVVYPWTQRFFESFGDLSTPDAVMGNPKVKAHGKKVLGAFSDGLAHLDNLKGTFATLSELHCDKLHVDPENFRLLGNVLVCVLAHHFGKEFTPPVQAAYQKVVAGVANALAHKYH

The target of the assay is hemoglobin subunit beta (HBB) (UniProt P68871). In words: co-IP; AC16 cell lysate (1% NP40, 150 mM NaCl, 50 mM Tris HCl pH 8.0), anti-HBB antibody or rabbit IgG, with or without aconitine (AC), overnight at 4 °C; dyna-beads A and G 2 h at 4 °C; Western blot. A general note: In western blotting, separated proteins are transferred to a membrane and probed.

Results are given in words; binding and its absence hold for the method and conditions named. In cells and extracts the contact can be indirect. Some entries that bind do so weakly or less than the wild type.

B1: ABHD5 (protein, UniProt Q8WTS1 1-349)
chain: MAAEEEEVDSADTGERSGWLTGWLPTWCPTSISHLKEAEEKMLKCVPCTYKKEPVRISNGNKIWTLKFSHNISNKTPLVLLHGFGGGLGLWALNFGDLCTNRPVYAFDLLGFGRSSRPRFDSDAEEVENQFVESIEEWRCALGLDKMILLGHNLGGFLAAAYSLKYPSRVNHLILVEPWGFPERPDLADQDRPIPVWIRALGAALTPFNPLAGLRIAGPFGLSLVQRLRPDFKRKYSSMFEDDTVTEYIYHCNVQTPSGETAFKNMTIPYGWAKRPMLQRIGKMHPDIPVSVIFGARSCIDGNSGTSIQSLRPHSYVKTIAILGAGHYVYADQPEEFNQKVKEICDTVD
B1: the binding result is “binds”.
